Results published in patent US20220386606A1, “SPECIFICALLY SUBSTITUTED 3-PHENYL-5-SPIROCYCLOPENTYL-3-PYRROLIN-2-ONES AND THEIR USE AS HERBICIDES” (Bayer Aktiengesellschaft, priority 2019, published 2022).
Some entries share one result that the patent states for a list of compounds. Some compounds share one range, which may span the group rather than tell each member.

How the values were obtained:
Conditions in all cases: application rate 320 g/ha
[1] = test system: LOLRI; assay: Pre-emergence herbicidal action against LOLRI (Table 8, titled post-emergence at 320 g/ha); format: in vivo, Lolium rigidum
Text: (§1) Seeds of monocotyledonous and dicotyledonous weed plants and crop plants are laid out in sandy loam soil in wood-fiber pots and covered with soil. The compounds of the invention, formulated in the form of wettable powders (WP) or as emulsion concentrates (EC), are then applied to the surface of the covering soil as aqueous suspension or emulsion at a water application rate equating to 600 to 800 L/ha with addition of 0.2% wetting agent.
(§2) After the treatment, the pots are placed in a greenhouse and kept under good growth conditions for the trial plants. The damage to the test plants is scored visually after a test period of 3 weeks by comparison with untreated controls (herbicidal activity in percent (%): 100% activity=the plants have died, 0% activity=like control plants).

[2] = test system: DIGSA; assay: Pre-emergence herbicidal action against DIGSA; format: in vivo, Digitaria sanguinalis
Text: as §1, §2

[3] = test system: AVEFA; assay: Pre-emergence herbicidal action against AVEFA; format: in vivo, Avena fatua
Text: as §1, §2

[4] = test system: SETVI; assay: Pre-emergence herbicidal action against SETVI; format: in vivo, Setaria viridis
Text: as §1, §2

[5] = test system: ALOMY; assay: Pre-emergence herbicidal action against ALOMY; format: in vivo, Alopecurus myosuroides
Text: as §1, §2

[6] = test system: ECHCG; assay: Pre-emergence herbicidal action against ECHCG; format: in vivo, Echinochloa crus-galli
Text: as §1, §2

CC#Cc1cc(Br)c(C2=C(O)[C@]3(CC[C@H](COCC)C3)NC2=O)c(OC)c1 (stereo in doubt) [Example I-11, 3-(2-Bromo-6-methoxy-4-prop-1-ynylphenyl)-8-(ethoxymethyl)-4-hydroxy-1-azaspiro[4.4]non-3-en-2-one]
90-100%: efficacy against Lolium rigidum [1] | efficacy against Digitaria sanguinalis [2] | efficacy against Avena fatua [3] | efficacy against Setaria viridis [4] | efficacy against Alopecurus myosuroides [5] | efficacy against Echinochloa crus-galli [6]
